PubChem BioAssay AID686943 | Drosophila RNAi Screening Center – 2013
Aim: 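Knockdowns that increase or decrease active ERK after insulin receptor stimulation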 (primary screen). System: Drosophila S2R+ haemocyte-like cells expressing YFP-tagged ERK (Rolled). Reagent: long dsRNA against Drosophila genes. Treatment: insulin stimulation versus unstimulated cells; dose and duration not given. Measured: 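Antibody staining for doubly phosphorylated ERK divided by ERK-YFP signal, as plate z-scores, in insulin-treated and untreated cells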. Reading the numbers: replicate 1, z-score of dpERK with insulin and replicate 2, z-score of dpERK with insulin: higher = more active ERK per ERK-YFP after insulin; replicate 1, z-score of dpERK under basal conditions: higher = more basal active ERK per ERK-YFP; replicate 1, z-score of ERK-YFP with insulin: higher = more YFP-tagged ERK signal.
The screen tested about 23,000 reagents; below is an unselected part of those with a known target gene and a result. 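Extra replicates exist only for a retested subset of genes; insulin dose and duration not given; both raised and lowered dpERK matter.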 Names joined by + are all predicted targets of the reagent. The record does not give: the amount of reagent, the time to read-out.

replicate 1, z-score of dpERK with insulin | replicate 2, z-score of dpERK with insulin | replicate 1, z-score of dpERK under basal conditions | replicate 1, z-score of ERK-YFP with insulin | predicted target | DRSC id
1.07 | 2.04 | 2.96 | -1.3 | cpo | DRSC13265
-0.08 | 1.1 | 0.41 | -0.49 | cpo | DRSC13273
-3.16 | -4.15 | -2.46 | -0.48 | cpo | DRSC14503
-2.44 | -3.31 | -2.58 | -0.03 | cpo | DRSC15327
-2.36 | -2.14 | -2.02 | 1.3 | cpo | DRSC16926
-0.29 | -0.22 | -0.14 | 0.42 | CG17300 | DRSC10260
1.7 | 0.56 | 0.65 | -2.91 | Gapvd1 | DRSC19752
-0.07 | 0.3 | -0.35 | 0.78 | CG4882 | DRSC04495
-0.36 | -0.57 | -0.55 | 0.47 | Diedel2 | DRSC13952
-0.47 | -0.09 | -0.55 | 0.21 | CG9812 | DRSC04566
-0.65 | -0.46 | -0.77 | 1.02 | Pph13 | DRSC00775
0.76 | 1.17 | -0.26 | 0.52 | CG13671 | DRSC10030
0.75 | 0.95 | -1.3 | -1.18 | me31B | DRSC03569
-0.35 | 0.29 | 0.76 | 0.67 | CR17024 | DRSC02562
0.15 | 0.13 | -1.15 | 1.01 | CG33298 | DRSC02210
-0.02 | 0.23 | 3.36 | 0.19 | CG33298 | DRSC02672
1.29 | 0.11 | -0.07 | -0.38 | CG4891 | DRSC01936
-0.18 | -0.55 | -0.82 | 0.27 | ChT | DRSC16296
0.08 | -1.31 | 1.11 | 0.79 | Acp32CD | DRSC01858
0.75 | 0.14 | 0.65 | -0.05 | Whamy | DRSC14574
0.26 | -0.16 | 0.57 | 0.16 | CG2747 | DRSC15450
-0.31 | 0.71 | 0.02 | 0.23 | scaf | DRSC04849
0.22 | -0.44 | 0.12 | 0.12 | Spn28F | DRSC03615
-0.33 | 0.27 | -0.34 | 0.01 | CG7275 | DRSC10796
1.14 | 0.9 | 2.84 | 1.2 | CG18754 | DRSC15387
0.53 | 0.31 | 0.9 | 0.74 | pll | DRSC17026
-0.43 | 0.09 | -0.36 | -0.33 | CG9109 | DRSC03139
0.44 | 0.1 | -1.1 | 0 | Ubqn | DRSC19581
0.65 | -0.48 | 1.73 | -0.22 | CG13814 (retired record) | DRSC10069
-0.28 | -0.13 | -0.31 | 0.06 | CG9445 | DRSC05006
0.49 | -0.18 | 0.48 | -0.04 | fzo | DRSC16954
-1.09 | -0.11 | -0.74 | 0.44 | cdi | DRSC16922
0.47 | -0.24 | -0.44 | -0.46 | CG33673 | DRSC00084
0.63 | 1.35 | -0.01 | 0.84 | HemK2 + Snapin | DRSC00736
-0.68 | -0.12 | 0.45 | 0.2 | HemK2 + Snapin | DRSC00737
0.44 | -0.49 | 0.44 | -0.14 | Tapdelta | DRSC05946
-0.07 | -0.17 | 0.61 | 0.01 | Osi4 | DRSC12134
0.24 | 0.6 | 0.01 | 0.36 | Pepck1 | DRSC07505
0.64 | 0.45 | 0.06 | -0.36 | eag | DRSC19067
-0.28 | 0.24 | -0.22 | 0.48 | eag | DRSC20328
-0.17 | 0.52 | -0.28 | 0.15 | obst-E | DRSC02128
0.28 | 0.39 | 0.29 | -0.06 | Pex11ab | DRSC07145
1 | 0.72 | 0.95 | -0.47 | CG42588 | DRSC09820
0.83 | 0.26 | 0.1 | -1.32 | CG42588 | DRSC22121
0.7 | 0.87 | -0.15 | 0.87 | Fdh | DRSC16670
0.28 | 0.93 | -0.24 | 0.66 | Meltrin | DRSC16274
0.91 | -0.29 | 0.25 | -0.51 | Meltrin | DRSC21693
-0.76 | -0.26 | -0.74 | 0.58 | CG32196 | DRSC09548
0.85 | 0.41 | -0.19 | -0.04 | CG15005 | DRSC08459
-0.15 | -1.25 | 1.02 | -0.03 | CG13177 | DRSC06303
0.58 | 1.02 | 0.66 | 1.04 | Ibf1 | DRSC16419
-2.19 | -0.09 | -0.76 | 0.86 | Lerp | DRSC14750
0.21 | 0.02 | 0.14 | -0.25 | Lerp | DRSC14751
0.61 | -0.09 | -0.25 | 0.11 | Lerp | DRSC16030
0.12 | -0.92 | -0.5 | -0.17 | Lerp | DRSC16031
0.21 | -0.61 | 0.65 | -0.29 | CG14570 | DRSC11731
-0.68 | -1.72 | 0.91 | 0.64 | Sac1 | DRSC08622

Part of the list above, showing only “replicate 1, z-score of dpERK under basal conditions”.
Fdh [DRSC16670]: -0.15
Meltrin [DRSC16274]: -0.24
Meltrin [DRSC21693]: 0.25
CG32196 [DRSC09548]: -0.74
CG15005 [DRSC08459]: -0.19
CG13177 [DRSC06303]: 1.02
Ibf1 [DRSC16419]: 0.66
Lerp [DRSC14750]: -0.76
